Source: PMC8394356 (Biomedicines, 2021)
Counter-ions that a name gives are not always drawn.

Tested on: reduced form GSH contents in brain extracts
Experiment: Reduced GSH levels in brain tissue extracts of treated mice
Type: in vivo
Conditions: oral TT-1 200 mg/kg, donepezil 5 mg/kg; scopolamine-induced amnesiac mice
Method: At the end of the TT-1 and TT-2 treatments, mice were sacrificed, and the whole brain of each ICR mouse was isolated and immediately stored at −80 °C for the measurement of residual AChE activity and the reduced GSH levels. The whole brain of each mouse was ground into powder by means of a mortar and pestle in liquid nitrogen and then extracted by adding 1 mL of 100 mM phosphate buffer (pH 7.5) to the ice bath. […]. The residual AChE activity of each brain extract was expressed as [A405sample−A405sample blank]/μg protein. The glutathione assay kit (no. 703002; Cayman Chemical Co.) was used to determine the reduced form GSH levels based on the reaction of GSH with DTNB reagents to generate a yellowish 5-thio-2-nitrobenzoic acid and expressed as A412 nm/μg protein.

## COc1cc2c(cc1OC)C(=O)C(CC1CCN(Cc3ccccc3)CC1)C2 (stereo not shown) [donepezil, donepezil hydrochloride]
  reduced form GSH contents in brain extracts vs control: higher reduced form GSH contents
